These are yes or no findings as the source states them, for the method shown. Binding seen in cells or lysates may run through a third protein. Some entries that bind do so weakly or less than the wild type.
Experiments:
[1] = target: GST-NP (Marburg virus nucleoprotein fused to GST) (Marburg virus (MARV)) (UniProt P27588); assay: pull-down; […]) and buffer 2 (500 mM NaCl); […]; only the target purified
[2] = target: GST-VP35 (Marburg virus VP35 fused to GST) (Marburg virus (MARV)) (UniProt P35259); assay: pull-down; […] (200 mM NaCl) and buffer 2 (500 mM NaCl); […]; only the target purified

Protein sequences, listed by entry. Tags and fused reporters are not part of them.
UniProt P27588: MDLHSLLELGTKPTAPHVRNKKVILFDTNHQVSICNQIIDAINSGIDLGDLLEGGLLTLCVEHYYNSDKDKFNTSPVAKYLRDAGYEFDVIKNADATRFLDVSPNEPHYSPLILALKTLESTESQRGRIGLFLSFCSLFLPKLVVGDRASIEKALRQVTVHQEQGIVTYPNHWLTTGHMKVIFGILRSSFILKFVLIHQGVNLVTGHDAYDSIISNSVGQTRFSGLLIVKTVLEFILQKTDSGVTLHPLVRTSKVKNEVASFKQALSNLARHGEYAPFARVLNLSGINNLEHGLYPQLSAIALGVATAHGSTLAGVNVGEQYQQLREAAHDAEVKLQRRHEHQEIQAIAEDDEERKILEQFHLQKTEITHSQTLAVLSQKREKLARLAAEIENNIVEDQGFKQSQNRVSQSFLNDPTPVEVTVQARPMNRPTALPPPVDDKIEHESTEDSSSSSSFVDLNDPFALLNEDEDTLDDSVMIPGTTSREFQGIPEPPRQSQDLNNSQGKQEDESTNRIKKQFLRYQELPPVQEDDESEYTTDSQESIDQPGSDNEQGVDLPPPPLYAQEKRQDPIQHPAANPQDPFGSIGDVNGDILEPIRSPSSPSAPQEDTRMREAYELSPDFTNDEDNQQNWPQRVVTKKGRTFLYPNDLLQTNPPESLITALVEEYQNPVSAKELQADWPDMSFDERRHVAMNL
UniProt P35259: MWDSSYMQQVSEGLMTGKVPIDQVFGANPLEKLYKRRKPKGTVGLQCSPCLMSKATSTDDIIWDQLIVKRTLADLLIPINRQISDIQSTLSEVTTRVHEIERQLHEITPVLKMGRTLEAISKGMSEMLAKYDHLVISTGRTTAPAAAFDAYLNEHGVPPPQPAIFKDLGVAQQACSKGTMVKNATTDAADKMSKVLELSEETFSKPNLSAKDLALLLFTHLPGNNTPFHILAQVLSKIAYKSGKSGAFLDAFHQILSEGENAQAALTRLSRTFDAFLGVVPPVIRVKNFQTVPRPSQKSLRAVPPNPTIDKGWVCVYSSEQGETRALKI

**Q.** For “Marburg virus nucleoprotein (NP), in vitro translated (from UniProt P27588 1-695)”, which binding [1] is on record?
**A.** binds

**Q.** What about the binding [2] of the same substance?
**A.** binds

— article PMC2170442
